25 molecules from PubChem BioAssay AID330 (DTP/NCI, 2004) can be followed below.

The assay concerns P388 leukemia ip, CD2F1 mice, survival T/C. Description: NCI In Vivo Anticancer Drug Screen. Data for tumor model P388 Leukemia (intraperitoneal) in CD2F1 (CDF1) mice. To be noted: T/C endpoint: median survival time, higher T/C = longer survival.
Setting [1] is: dose: 50.0 mg/kg/injection, schedule: Q01DX009 (ip), vehicle: distilled water + Tween-80.
Where [2] appears, read: dose: 100.0 mg/kg/injection, schedule: Q01DX009 (ip), vehicle: distilled water + Tween-80.
Setting [3] is: dose: 200.0 mg/kg/injection, schedule: Q01DX009 (ip), vehicle: distilled water + Tween-80.
Where [4] appears, read: dose: 100.0 mg/kg/injection, schedule: Q01DX009 (ip), vehicle: Klucel (hydroxypropylcellulose) (HPC).
The mark [5] stands for this setting: dose: 240.0 mg/kg/injection, schedule: Q01DX005 (ip), vehicle: saline with Tween-80.
[6] abbreviates: dose: 400.0 mg/kg/injection, schedule: Q04DX003 (ip), vehicle: Klucel (hydroxypropylcellulose) (HPC).
The mark [7] stands for this setting: dose: 100.0 mg/kg/injection, schedule: Q01DX005 (ip), vehicle: saline with Tween-80.
Where [8] appears, read: dose: 200.0 mg/kg/injection, schedule: Q01DX005 (ip), vehicle: saline with Tween-80.
The mark [9] stands for this setting: dose: 200.0 mg/kg/injection, schedule: Q01DX009 (ip), vehicle: saline with Tween-80.
Where [10] appears, read: dose: 200.0 mg/kg/injection, schedule: Q01DX009 (ip), vehicle: saline.

The list shows only some results of the screen, not a fair sample: it gathers tests that were run many times, whatever their T/C, doses with no T/C, and many T/C values between a quarter and a half above the control. Further doses and runs are listed elsewhere. T/C: endpoint of the treated group in % of that of the vehicle group. Some doses have a count of surviving animals in place of a T/C: the source holds a T/C of zero for them, seemingly a mark for toxic or unscored doses. Some doses without a T/C left all or most animals alive at the check, yet need not have been tolerated: survival well below the control is almost never listed, so the zero probably covers shortened survival too. Survivors were counted at the toxicity check, usually on the fifth day, unless a day is given; later deaths do not show. Schedules are NCI's codes, taken here to give the interval after Q, in days (D) or hours (H), and the number of doses after X. Some doses were run more than once; their values stand side by side, smallest first. Where survival is the endpoint, this PubChem deposit counts one and a half times the control or more as active, and values a quarter to a half above the control carry no call in these data; other NCI protocols may use other cut-offs. Marks such as (2×) say how often a value occurs here.

Turning to `CNC(=O)OCc1c(COC(=O)NC)c2n(c1C)CCc1ccccc1-2`, the T/C (dose: 3.12 mg/kg/injection, schedule: Q01DX009 (ip), vehicle: distilled water + Tween-80) is 138 % of control; the T/C (dose: 6.25 mg/kg/injection, schedule: Q01DX009 (ip), vehicle: distilled water + Tween-80) is 138 % of control; the T/C (dose: 12.5 mg/kg/injection, schedule: Q01DX009 (ip), vehicle: distilled water + Tween-80) was 140 % of control. Besides, the survivor count under setting [1] is 6 of 6, the survivor count under setting [2] was 1 of 6 and the survivor count under setting [3] was 0 of 6.

As to `C=C1C(=O)OC2CC(C)C3OC3C(=O)C(C)(O)C(O)C(O)C12` (stereo unspecified) (tested in a mixture with another compound), under setting [4], the T/C is 126 % of control.

Consider `COc1cc(O)c2c(c1)C(=O)C1=C(C2=O)[C@@H](C)OC(C)C1` (stereo partly specified), for which the survivor count by setting is: (dose: 120.0 mg/kg/injection, schedule: Q01DX005 (ip), vehicle: saline with Tween-80) 6 of 6; under setting [5], 6 of 6.

As for `CCn1c2ccccc2c2cc(N=Nc3cc4cc5ccccc5cc4cc3N)ccc21`, the survivor count under setting [6] was 0 of 6.

As to `CCCCCCCCCCSCC(CO)NC(=O)/C=C/c1c(C)[nH]c(=O)[nH]c1=O` (stereo unspecified), the T/C was 125, 130, 134 % of control (dose: 25.0 mg/kg/injection, schedule: Q01DX009 (ip), vehicle: other); 130 % of control under setting [1]; 137 and 144 % of control (dose: 50.0 mg/kg/injection, schedule: Q01DX009 (ip), vehicle: other); 140 and 141 % of control under setting [2]. Besides, the survivor count runs as follows: (dose: 100.0 mg/kg/injection, schedule: Q01DX009 (ip), vehicle: other) 4 of 6 and 6 of 6; under setting [3], 0 of 6 and 1 of 6; (dose: 200.0 mg/kg/injection, schedule: Q01DX009 (ip), vehicle: other) 0 of 6 and 2 of 6; (dose: 400.0 mg/kg/injection, schedule: Q01DX009 (ip), vehicle: other) 0 of 6.

Take `COC1=CC(=Nc2ccc(N(C)C)cc2)C=CC1=O`: the survivor count (dose: 50.0 mg/kg/injection, schedule: Q01DX005 (ip), vehicle: saline with Tween-80) is given as 0 of 5; the survivor count under setting [7] was 0 of 5; the survivor count under setting [8] is reported as 0 of 5.

As to `O=[N+]([O-])c1nc(Br)n[nH]1`, the survivor count (dose: 400.0 mg/kg/injection, schedule: Q04DX002 (ip), vehicle: water) was 0 of 6.

Take `CCC1(O)CC(OC2CC(N(C)C)C(OC3CC(O)C(OC4CCC(=O)C(C)O4)C(C)O3)C(C)O2)c2c(cc3c(c2O)C(=O)c2c(O)ccc(O)c2C3=O)C1C(=O)OC` (stereo unspecified): the T/C (dose: 0.78 mg/kg/injection, schedule: Q01DX009 (ip), vehicle: saline with Tween-80) is 135 % of control. Besides, the survivor count (dose: 3.75 mg/kg/injection, schedule: Q01DX009 (ip), vehicle: saline with Tween-80) was 6 of 6; the survivor count (dose: 7.5 mg/kg/injection, schedule: Q01DX009 (ip), vehicle: saline with Tween-80) is recorded as 2 of 6; the survivor count (dose: 15.0 mg/kg/injection, schedule: Q01DX009 (ip), vehicle: saline with Tween-80) is given as 0 of 6.

As for `Nc1nc2ccc(NCc3ccc(C(=O)NC(CCC(=O)O)C(=O)O)cc3)cc2c(=O)[nH]1` (stereo unspecified), the T/C under setting [7] was 127 and 135 % of control. The survivor count by setting is: under setting [8], 0 of 5; (dose: 400.0 mg/kg/injection, schedule: Q01DX005 (ip), vehicle: saline with Tween-80) 0 of 5.

For `CN(C)C1CCc2ccccc2C1OC(=O)/C=C/c1ccccc1` (stereo unspecified), the survivor count under setting [9] is on record as 2 of 6.

Turning to `C(=Nc1cccnc1)c1ccc(C=Nc2cccnc2)cc1`, the survivor count under setting [10] is given as 5 of 6.

Take `O=C(Nc1ccc(Cl)c(Cl)c1)Oc1cccnc1`: the survivor count under setting [9] is listed as 5 of 6.

With `O=C(O)c1cccc(C(=O)O)c1O`, the survivor count (dose: 400.0 mg/kg/injection, schedule: Q01DX001 (ip), vehicle: saline with Tween-80) is 0 of 6.

Consider `Clc1ccc(C2C3CCN2CC3)cc1` (stereo unspecified), for which the survivor count (dose: 50.0 mg/kg/injection, schedule: Q01DX009 (ip), vehicle: saline) is 0 of 6; the survivor count (dose: 100.0 mg/kg/injection, schedule: Q01DX009 (ip), vehicle: saline) is 0 of 6; the survivor count under setting [10] is on record as 0 of 6.

On to `Cc1ccc(S(=O)(=O)N/N=C/c2c(Cl)n(C(=O)c3cccc(C)c3)c3ccccc23)cc1`, for which the survivor count (dose: 100.0 mg/kg/injection, schedule: Q01DX001 (ip), vehicle: Klucel (hydroxypropylcellulose) (HPC)) is given as 6 of 6; the survivor count (dose: 200.0 mg/kg/injection, schedule: Q01DX001 (ip), vehicle: Klucel (hydroxypropylcellulose) (HPC)) is 5 of 6; the survivor count (dose: 400.0 mg/kg/injection, schedule: Q01DX001 (ip), vehicle: Klucel (hydroxypropylcellulose) (HPC)) is 6 of 6.

`O=C1CC(c2ccc(OCN(CCCl)CCCl)cc2)CC(=O)C1CN(CCCl)CCCl` (stereo unspecified): the T/C reads like this: (dose: 1.0 mg/kg/injection, schedule: Q01DX009 (ip), vehicle: Klucel (hydroxypropylcellulose) (HPC)) 135 % of control; (dose: 4.0 mg/kg/injection, schedule: Q01DX009 (ip), vehicle: Klucel (hydroxypropylcellulose) (HPC)) 137 % of control; (dose: 8.0 mg/kg/injection, schedule: Q01DX009 (ip), vehicle: Klucel (hydroxypropylcellulose) (HPC)) 137 % of control.

Take `BrCC[Se](Br)(Br)c1ccccc1`: the survivor count is, setting by setting: (dose: 12.5 mg/kg/injection, schedule: Q01DX009 (ip), vehicle: Klucel (hydroxypropylcellulose) (HPC)) 5 of 6; (dose: 25.0 mg/kg/injection, schedule: Q01DX009 (ip), vehicle: Klucel (hydroxypropylcellulose) (HPC)) 1 of 6; (dose: 50.0 mg/kg/injection, schedule: Q01DX009 (ip), vehicle: Klucel (hydroxypropylcellulose) (HPC)) 0 of 6; under setting [4], 0 of 6; (dose: 200.0 mg/kg/injection, schedule: Q01DX009 (ip), vehicle: Klucel (hydroxypropylcellulose) (HPC)) 0 of 6.

On to `[Ni].c1c[nH]cn1.c1c[nH]cn1.c1c[nH]cn1.c1c[nH]cn1.c1c[nH]cn1.c1c[nH]cn1`, for which the survivor count is, setting by setting: (dose: 100.0 mg/kg/injection, schedule: Q01DX005 (ip), vehicle: saline) 6 of 6; (dose: 200.0 mg/kg/injection, schedule: Q01DX005 (ip), vehicle: saline) 0 of 6.

With `O=C(OCc1ccccc1)c1ccc(=O)oc1`, under setting [6], the survivor count is given as 3 of 6.

Regarding `Cc1c(N=Nc2ccc(Br)cc2)c(-c2ccccc2)nn1C(N)=S`, the survivor count (dose: 200.0 mg/kg/injection, schedule: Q01DX005 (ip), vehicle: Klucel (hydroxypropylcellulose) (HPC)) is given as 5 of 5.

With `COc1ccc(NC(=O)Oc2ccc3c(C)cc(=O)oc3c2)c(OC)c1` (tested in a mixture with another compound), the T/C runs as follows: under setting [5], 130 % of control (2×); (dose: 480.0 mg/kg/injection, schedule: Q01DX005 (ip), vehicle: saline with Tween-80) 126 % of control.

Take `Cc1ccc(C2=Nc3ccccc3SC(c3cccc([N+](=O)[O-])c3)C2)cc1` (stereo unspecified): the survivor count by setting is: (dose: 12.5 mg/kg/injection, schedule: Q01DX009 (ip), vehicle: saline) 5 of 6; (dose: 25.0 mg/kg/injection, schedule: Q01DX009 (ip), vehicle: saline) 5 of 6.

In the case of `CC1(C)CC(N=[N+]=[N-])CC(C)(C)N1O`, the survivor count is, setting by setting: (dose: 200.0 mg/kg/injection, schedule: Q04DX003 (ip), vehicle: Klucel (hydroxypropylcellulose) (HPC)) 5 of 6; under setting [6], 0 of 6.

Consider `CNNCc1ccc(C(=O)NC(N)=O)cc1`, for which the T/C is 125 % of control (dose: 88.0 mg/kg/injection, schedule: Q01DX009 (ip), vehicle: saline); 130 % of control (dose: 133.0 mg/kg/injection, schedule: Q01DX009 (ip), vehicle: saline); 140 % of control under setting [10].

Regarding `CCOC(=O)NC(C)(C)CN(C(=O)OCC)c1ccccc1`, for the setting “dose: 100.0 mg/kg/injection, schedule: Q04DX003 (ip), vehicle: saline with Tween-80”, the T/C was 127 % of control.
